Values from PubChem BioAssay AID1508588 (Peter MacCallum Cancer Centre, 2020)

Purpose: 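Genome-wide search for knock-downs that heighten vemurafenib action in melanoma cells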 (primary screen)
Cells: human WM266.4 melanoma cells (BRAF V600 mutant)
Reagents: siRNA pool against human genes, 40 nM
Time to read-out: 96 h from transfection to read-out
Challenge: vemurafenib 300 nM (about IC25), added 48 h after transfection, for 48 h; comparison arm got DMSO vehicle only
Measured: 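Cell gain (DAPI nuclei at end minus before drug, mean of two replicates) and medium lactate by absorbance per cell, both as ratio to non-targeting siRNA, also grouped into fold-change classes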
Reading the numbers: cell gain with vemurafenib: higher = more cell gain than with non-targeting siRNA; lactate per cell with vemurafenib: higher = more lactate made per cell
Active means: 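Enhancement is called by pairing each knock-down's vehicle-arm and drug-arm fold-change classes for viability or glycolysis; which class combinations qualify is not given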
Calls: active = enhances vemurafenib effect; inactive = no enhancement seen
The deposit covers about 18,000 reagents; this is an unselected part. 790 of all reagents (4.4%) count as active. 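Calls rest on a combination of fold-change classes in drug and vehicle arms, not all shown here.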 A reagent listed more than once was tested more than once; the source does not tell the runs apart.

TUBB2B (tubulin beta 2B class IIb) | cell gain with vemurafenib = 0.84; lactate per cell with vemurafenib = 0.51; activity call = inactive
ARL4C (ARF like GTPase 4C) | cell gain with vemurafenib = 0.94; lactate per cell with vemurafenib = 0.96; activity call = inactive
TTLL12 (tubulin tyrosine ligase like 12) | cell gain with vemurafenib = 0.22; lactate per cell with vemurafenib = 0.67; activity call = inactive
EIF2B4 (eukaryotic translation initiation factor 2B subunit delta) | cell gain with vemurafenib = 0.71; lactate per cell with vemurafenib = 0.7; activity call = inactive
DLX1 (distal-less homeobox 1) | cell gain with vemurafenib = 0.51; lactate per cell with vemurafenib = 0.57; activity call = inactive
HSP90AA1 (heat shock protein 90 alpha family class A member 1) | cell gain with vemurafenib = 0.36; lactate per cell with vemurafenib = 1.17; activity call = inactive
PPIL6 (peptidylprolyl isomerase like 6) | cell gain with vemurafenib = 0.97; lactate per cell with vemurafenib = 0.78; activity call = inactive
MAP3K3 (mitogen-activated protein kinase kinase kinase 3) | cell gain with vemurafenib = 0.4; lactate per cell with vemurafenib = 0.97; activity call = inactive
STATH (statherin) | cell gain with vemurafenib = 0.26; lactate per cell with vemurafenib = 2.62; activity call = inactive
RUFY1 (RUN and FYVE domain containing 1) | cell gain with vemurafenib = 0.92; lactate per cell with vemurafenib = 1.12; activity call = inactive
RC3H1 (ring finger and CCCH-type domains 1) | cell gain with vemurafenib = 1.06; lactate per cell with vemurafenib = 0.87; activity call = inactive
FBXO43 (F-box protein 43) | cell gain with vemurafenib = 0.79; lactate per cell with vemurafenib = 0.85; activity call = inactive
OLFM1 (olfactomedin 1) | cell gain with vemurafenib = 0.81; lactate per cell with vemurafenib = 0.9; activity call = inactive
GUCA2B (guanylate cyclase activator 2B) | cell gain with vemurafenib = 1.06; lactate per cell with vemurafenib = 0.51; activity call = inactive
PPDPF | cell gain with vemurafenib = 0.31; lactate per cell with vemurafenib = 0.88; activity call = inactive
OTOP2 (otopetrin 2) | cell gain with vemurafenib = 0.64; lactate per cell with vemurafenib = 1.03; activity call = inactive
PIK3CD | cell gain with vemurafenib = 0.61; lactate per cell with vemurafenib = 1.32; activity call = inactive
RNF149 (ring finger protein 149) | cell gain with vemurafenib = 1.06; lactate per cell with vemurafenib = 0.7; activity call = inactive
RNF149 (ring finger protein 149) | cell gain with vemurafenib = 0.77; lactate per cell with vemurafenib = 0.8; activity call = inactive
SFR1 (SWI5 dependent homologous recombination repair protein 1) | cell gain with vemurafenib = 0.24; lactate per cell with vemurafenib = 2.21; activity call = inactive
RPS15 (ribosomal protein S15) | cell gain with vemurafenib = -0.01; lactate per cell with vemurafenib = 0.3; activity call = inactive
YAP1 (Yes1 associated transcriptional regulator) | cell gain with vemurafenib = 0.76; lactate per cell with vemurafenib = 0.55; activity call = inactive
DEFB1 (defensin beta 1) | cell gain with vemurafenib = 0.32; lactate per cell with vemurafenib = 1.07; activity call = inactive
PTPN1 (protein tyrosine phosphatase non-receptor type 1) | cell gain with vemurafenib = 0.96; lactate per cell with vemurafenib = 0.44; activity call = inactive
OR51L1 (olfactory receptor family 51 subfamily L member 1) | cell gain with vemurafenib = 0.39; lactate per cell with vemurafenib = 1; activity call = inactive
AMELX (amelogenin X-linked) | cell gain with vemurafenib = 0.5; lactate per cell with vemurafenib = 0.73; activity call = inactive
SLC9B2 | cell gain with vemurafenib = 0.45; lactate per cell with vemurafenib = 1.98; activity call = inactive
